# The other results are listed elsewhere or left out.
# The chains behind the UniProt entries cited, without tags or fusion partners. Where a name states a change or a piece, a line headed by the entry shows the natural chain unless it says otherwise.
# UniProt Q8NBN3: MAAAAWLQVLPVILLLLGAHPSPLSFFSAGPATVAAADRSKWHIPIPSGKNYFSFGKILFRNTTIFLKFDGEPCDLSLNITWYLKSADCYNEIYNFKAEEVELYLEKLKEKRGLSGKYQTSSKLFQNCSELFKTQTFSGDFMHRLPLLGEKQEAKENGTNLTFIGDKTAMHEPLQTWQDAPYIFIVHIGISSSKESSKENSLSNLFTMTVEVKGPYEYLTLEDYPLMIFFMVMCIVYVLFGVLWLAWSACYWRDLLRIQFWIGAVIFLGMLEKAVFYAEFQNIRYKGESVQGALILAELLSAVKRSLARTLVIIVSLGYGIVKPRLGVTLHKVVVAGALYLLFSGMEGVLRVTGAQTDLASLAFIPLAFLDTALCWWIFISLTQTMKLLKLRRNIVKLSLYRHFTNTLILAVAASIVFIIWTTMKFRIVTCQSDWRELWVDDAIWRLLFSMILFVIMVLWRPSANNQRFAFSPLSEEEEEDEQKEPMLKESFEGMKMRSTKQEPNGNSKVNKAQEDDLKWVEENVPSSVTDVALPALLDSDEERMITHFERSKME
# UniProt Q96HA7: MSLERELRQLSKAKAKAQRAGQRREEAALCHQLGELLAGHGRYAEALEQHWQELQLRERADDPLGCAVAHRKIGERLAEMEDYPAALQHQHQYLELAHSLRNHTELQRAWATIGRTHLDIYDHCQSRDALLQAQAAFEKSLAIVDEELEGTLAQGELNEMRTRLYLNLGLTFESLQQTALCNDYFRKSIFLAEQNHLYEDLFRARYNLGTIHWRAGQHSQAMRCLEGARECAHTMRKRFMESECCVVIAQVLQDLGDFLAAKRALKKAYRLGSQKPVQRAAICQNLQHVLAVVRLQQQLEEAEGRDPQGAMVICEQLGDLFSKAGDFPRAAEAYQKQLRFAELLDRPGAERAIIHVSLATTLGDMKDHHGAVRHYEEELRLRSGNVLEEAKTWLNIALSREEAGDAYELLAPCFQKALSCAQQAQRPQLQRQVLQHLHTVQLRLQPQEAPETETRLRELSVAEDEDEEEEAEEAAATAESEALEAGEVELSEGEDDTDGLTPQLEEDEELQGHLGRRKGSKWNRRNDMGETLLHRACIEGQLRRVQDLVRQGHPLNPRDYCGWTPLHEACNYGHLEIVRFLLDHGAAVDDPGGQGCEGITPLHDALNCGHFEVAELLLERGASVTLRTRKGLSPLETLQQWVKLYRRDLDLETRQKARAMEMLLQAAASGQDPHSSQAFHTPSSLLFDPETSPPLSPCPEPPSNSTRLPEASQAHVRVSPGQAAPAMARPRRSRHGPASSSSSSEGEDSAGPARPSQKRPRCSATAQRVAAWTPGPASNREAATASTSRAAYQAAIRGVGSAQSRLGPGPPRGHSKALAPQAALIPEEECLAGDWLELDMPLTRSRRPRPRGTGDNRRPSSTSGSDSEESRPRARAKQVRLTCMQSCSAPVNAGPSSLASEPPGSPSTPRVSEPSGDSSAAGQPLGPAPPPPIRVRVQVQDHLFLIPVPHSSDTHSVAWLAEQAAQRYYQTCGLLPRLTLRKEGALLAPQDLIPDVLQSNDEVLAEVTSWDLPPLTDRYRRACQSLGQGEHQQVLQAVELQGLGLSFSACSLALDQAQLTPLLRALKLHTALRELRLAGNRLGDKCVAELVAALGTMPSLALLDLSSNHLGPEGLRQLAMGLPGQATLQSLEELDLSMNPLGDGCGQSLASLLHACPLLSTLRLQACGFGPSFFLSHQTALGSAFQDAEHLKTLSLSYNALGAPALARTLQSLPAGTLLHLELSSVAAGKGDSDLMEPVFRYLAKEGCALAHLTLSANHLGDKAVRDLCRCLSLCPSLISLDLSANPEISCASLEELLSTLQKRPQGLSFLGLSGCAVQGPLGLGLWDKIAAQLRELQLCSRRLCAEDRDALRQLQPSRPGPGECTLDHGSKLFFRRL
# UniProt Q9NQ34: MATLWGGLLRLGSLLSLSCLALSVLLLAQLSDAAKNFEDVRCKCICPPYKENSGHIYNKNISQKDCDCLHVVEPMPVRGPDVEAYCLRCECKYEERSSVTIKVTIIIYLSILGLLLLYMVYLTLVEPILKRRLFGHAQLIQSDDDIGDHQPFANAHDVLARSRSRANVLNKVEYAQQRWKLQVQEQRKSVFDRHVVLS
# UniProt O15417: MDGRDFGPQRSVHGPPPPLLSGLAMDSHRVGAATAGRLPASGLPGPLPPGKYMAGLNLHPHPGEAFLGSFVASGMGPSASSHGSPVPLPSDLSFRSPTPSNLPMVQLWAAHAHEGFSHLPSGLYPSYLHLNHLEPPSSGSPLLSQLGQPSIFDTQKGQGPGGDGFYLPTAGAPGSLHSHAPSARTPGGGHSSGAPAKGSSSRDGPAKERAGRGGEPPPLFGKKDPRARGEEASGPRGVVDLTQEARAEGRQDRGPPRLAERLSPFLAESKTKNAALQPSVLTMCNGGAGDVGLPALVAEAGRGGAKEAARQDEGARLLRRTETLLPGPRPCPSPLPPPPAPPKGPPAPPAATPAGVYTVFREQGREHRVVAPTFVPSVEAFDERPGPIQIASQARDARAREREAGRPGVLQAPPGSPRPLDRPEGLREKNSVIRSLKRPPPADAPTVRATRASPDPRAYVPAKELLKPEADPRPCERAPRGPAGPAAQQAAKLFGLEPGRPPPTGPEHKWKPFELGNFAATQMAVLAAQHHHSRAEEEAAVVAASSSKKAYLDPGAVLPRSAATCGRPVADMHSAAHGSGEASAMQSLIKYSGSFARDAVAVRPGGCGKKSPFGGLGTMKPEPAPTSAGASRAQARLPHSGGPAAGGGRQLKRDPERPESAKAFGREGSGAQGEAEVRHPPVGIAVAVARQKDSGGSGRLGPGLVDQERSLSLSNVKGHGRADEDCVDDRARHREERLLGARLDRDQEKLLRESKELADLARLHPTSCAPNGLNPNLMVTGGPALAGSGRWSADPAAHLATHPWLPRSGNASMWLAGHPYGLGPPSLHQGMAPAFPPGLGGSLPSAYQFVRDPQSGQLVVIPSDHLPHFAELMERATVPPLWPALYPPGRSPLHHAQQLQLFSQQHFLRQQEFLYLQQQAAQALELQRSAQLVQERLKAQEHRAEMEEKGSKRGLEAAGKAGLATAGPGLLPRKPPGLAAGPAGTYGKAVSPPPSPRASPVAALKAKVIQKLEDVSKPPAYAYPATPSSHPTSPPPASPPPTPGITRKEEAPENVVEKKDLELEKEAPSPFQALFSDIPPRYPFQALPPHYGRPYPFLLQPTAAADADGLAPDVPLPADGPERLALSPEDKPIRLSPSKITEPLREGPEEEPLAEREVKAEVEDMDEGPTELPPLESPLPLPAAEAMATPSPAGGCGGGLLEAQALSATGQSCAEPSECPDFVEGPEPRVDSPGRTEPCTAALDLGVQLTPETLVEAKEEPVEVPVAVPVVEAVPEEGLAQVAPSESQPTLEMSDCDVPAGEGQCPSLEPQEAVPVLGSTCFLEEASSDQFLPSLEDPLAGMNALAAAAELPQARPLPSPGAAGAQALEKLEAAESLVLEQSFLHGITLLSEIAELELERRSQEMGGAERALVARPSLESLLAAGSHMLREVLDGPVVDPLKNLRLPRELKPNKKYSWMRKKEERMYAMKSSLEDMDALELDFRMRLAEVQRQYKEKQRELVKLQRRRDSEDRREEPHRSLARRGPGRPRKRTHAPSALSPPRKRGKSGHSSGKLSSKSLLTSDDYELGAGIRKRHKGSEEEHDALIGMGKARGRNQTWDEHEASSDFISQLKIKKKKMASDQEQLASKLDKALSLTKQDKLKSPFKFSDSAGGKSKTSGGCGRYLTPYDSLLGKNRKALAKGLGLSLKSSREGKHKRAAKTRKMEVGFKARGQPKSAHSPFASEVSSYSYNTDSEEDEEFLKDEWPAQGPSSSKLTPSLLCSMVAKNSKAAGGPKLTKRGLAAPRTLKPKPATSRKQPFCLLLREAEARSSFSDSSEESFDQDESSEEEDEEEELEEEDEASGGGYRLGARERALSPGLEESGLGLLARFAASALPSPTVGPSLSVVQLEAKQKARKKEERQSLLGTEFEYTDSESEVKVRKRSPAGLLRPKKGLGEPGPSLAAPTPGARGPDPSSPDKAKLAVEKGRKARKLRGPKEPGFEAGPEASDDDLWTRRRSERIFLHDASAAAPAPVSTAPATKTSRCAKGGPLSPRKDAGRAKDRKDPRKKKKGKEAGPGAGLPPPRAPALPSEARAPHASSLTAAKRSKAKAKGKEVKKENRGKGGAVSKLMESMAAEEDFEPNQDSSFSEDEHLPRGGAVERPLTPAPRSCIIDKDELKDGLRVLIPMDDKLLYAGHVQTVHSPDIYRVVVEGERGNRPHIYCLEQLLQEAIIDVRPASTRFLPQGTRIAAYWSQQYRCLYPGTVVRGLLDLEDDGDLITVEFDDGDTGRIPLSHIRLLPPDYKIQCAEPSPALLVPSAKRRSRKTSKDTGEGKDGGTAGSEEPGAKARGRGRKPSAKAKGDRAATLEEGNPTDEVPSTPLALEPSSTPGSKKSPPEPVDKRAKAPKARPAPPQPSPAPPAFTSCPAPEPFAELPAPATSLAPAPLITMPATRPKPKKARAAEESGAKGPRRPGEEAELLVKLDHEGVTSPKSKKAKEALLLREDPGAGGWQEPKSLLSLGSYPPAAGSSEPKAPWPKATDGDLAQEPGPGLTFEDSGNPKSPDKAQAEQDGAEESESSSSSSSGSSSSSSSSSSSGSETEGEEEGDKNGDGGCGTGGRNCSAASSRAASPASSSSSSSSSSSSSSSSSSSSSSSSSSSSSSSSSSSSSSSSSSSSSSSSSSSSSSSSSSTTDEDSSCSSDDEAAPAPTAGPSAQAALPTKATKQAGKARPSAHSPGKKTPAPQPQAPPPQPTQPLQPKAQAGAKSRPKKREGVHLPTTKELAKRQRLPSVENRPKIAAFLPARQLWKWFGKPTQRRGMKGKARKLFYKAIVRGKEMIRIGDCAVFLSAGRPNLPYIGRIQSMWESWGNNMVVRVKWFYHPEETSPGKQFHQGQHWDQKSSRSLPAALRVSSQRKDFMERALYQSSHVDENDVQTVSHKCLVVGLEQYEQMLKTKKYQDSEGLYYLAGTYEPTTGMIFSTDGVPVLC
# UniProt Q9Y5L0: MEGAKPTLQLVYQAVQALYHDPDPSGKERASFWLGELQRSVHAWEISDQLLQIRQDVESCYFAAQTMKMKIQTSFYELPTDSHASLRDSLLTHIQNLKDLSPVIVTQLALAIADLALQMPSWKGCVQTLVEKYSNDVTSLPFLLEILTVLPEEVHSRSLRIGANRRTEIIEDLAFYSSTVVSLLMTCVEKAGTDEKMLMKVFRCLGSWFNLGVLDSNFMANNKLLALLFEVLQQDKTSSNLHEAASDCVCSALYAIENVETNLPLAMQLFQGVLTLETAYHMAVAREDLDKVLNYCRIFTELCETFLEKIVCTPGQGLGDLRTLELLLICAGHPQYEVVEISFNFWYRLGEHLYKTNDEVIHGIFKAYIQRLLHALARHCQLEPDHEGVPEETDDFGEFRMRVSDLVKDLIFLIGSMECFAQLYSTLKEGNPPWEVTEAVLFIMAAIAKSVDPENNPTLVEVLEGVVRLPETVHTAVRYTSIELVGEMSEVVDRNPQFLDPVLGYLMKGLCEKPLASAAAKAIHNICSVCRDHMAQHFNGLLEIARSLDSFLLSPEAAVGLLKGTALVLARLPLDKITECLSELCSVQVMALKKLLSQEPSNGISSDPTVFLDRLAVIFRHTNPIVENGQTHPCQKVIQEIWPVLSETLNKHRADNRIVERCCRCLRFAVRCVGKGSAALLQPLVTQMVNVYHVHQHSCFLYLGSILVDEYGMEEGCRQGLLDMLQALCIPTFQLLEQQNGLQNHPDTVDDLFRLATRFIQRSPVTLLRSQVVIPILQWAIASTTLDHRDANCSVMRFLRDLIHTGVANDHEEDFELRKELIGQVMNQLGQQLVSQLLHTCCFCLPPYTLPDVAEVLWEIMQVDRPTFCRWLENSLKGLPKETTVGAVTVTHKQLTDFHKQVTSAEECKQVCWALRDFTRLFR
# UniProt Q8NFZ5: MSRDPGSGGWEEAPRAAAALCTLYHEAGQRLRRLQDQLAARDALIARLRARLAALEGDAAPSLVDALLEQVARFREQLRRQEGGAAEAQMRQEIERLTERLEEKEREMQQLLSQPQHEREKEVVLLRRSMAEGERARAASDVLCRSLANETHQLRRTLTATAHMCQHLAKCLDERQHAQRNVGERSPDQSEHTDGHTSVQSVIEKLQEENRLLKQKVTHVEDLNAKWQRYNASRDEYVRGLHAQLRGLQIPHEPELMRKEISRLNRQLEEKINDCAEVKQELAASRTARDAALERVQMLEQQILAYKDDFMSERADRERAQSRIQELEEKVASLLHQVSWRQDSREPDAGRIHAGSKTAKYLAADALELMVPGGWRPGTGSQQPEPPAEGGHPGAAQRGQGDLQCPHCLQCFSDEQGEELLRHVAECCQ
# Compound: Cc1cc(ccc1-c1ccccc1)C(=O)N1CCCN(CC1)C(=O)CCl [compound 10]
# Experiment: probe-labelled cysteine peptide fold change vs DMSO (competition) (log2 fold change); higher = less target engagement (more negative = stronger competition)
# Conditions: THP-1, incubation time: 4 h
# 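Also: competitive profiling in live THP-1 cells: cysteine peptides tagged with an iodoacetamide desthiobiotin (IA-DTB) probe, intensity after compound treatment relative to DMSO-treated cells.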
Target,probe-labelled cysteine peptide fold change (10 µM),probe-labelled cysteine peptide fold change (50 µM)
TOP2A_P11388_1145_KDELCR (UniProt P11388),-0.202,0.104
TMPO_P42166_518_QLPSLACK (UniProt P42166),0.0286,-0.25
TMCO6_Q96DC7_14_LRPTVCGVEELRR (UniProt Q96DC7),-0.0775,-0.449
TMEM87A_Q8NBN3_89_SADCYNEIYNFK (UniProt Q8NBN3),-0.0936,0.149
TMEM209_Q96SK2_495_TFTSQHFVQTPNKPDVTNENVFCIYQSAINPPHYELIYQR (UniProt Q96SK2),0.145,0.0358
TPM3_P06753-2_154_CREMDEQIR (UniProt P06753),0.328,0.029
TONSL_Q96HA7_1345_LCAEDRDALR (UniProt Q96HA7),-0.18,-0.183
TNPO2_O14787_789_LGYVCPQEVAPMLQQFIR (UniProt O14787),-0.0982,0.226
TMEM9B_Q9NQ34_66_DCDCLHVVEPMPVRGPDVEAYCLR (UniProt Q9NQ34),-0.117,0.21
TMEM260_Q9NX78_647_NYAIACER (UniProt Q9NX78),0.0142,0.269
TM9SF2_Q99805_194_DACVISSDFHER (UniProt Q99805),0.0577,0.0857
TOMM70_O94826_144_YEQAIQCYTEAISLCPTEK (UniProt O94826),-0.0548,0.165
TOR2A_Q5JU69_35+43_CTLGAFCECDFRPDLPGLECDLAQHLAGQHLAK (UniProt Q5JU69),-0.21,0.239
TMX2_Q9Y320_186_YNCTGLNFGK (UniProt Q9Y320),-0.00414,-0.0108
TOR1AIP1_Q5JTV8_496_YCDHENAAFK (UniProt Q5JTV8),0.126,0.19
TOPBP1_Q92547_60_SLYICDPFSGVVFDHLKK (UniProt Q92547),0.122,-0.237
TMEM94_Q12767_459_SFCHPEPHER (UniProt Q12767),-0.153,-0.213
TPI1_P60174_104_IAVAAQNCYK (UniProt P60174),-0.156,-0.00764
TMEM120B_A0PK00_43_QKLEELAALQTLCSSSISK (UniProt A0PK00),0.0405,-0.0551

Target,probe-labelled cysteine peptide fold change (10 µM),probe-labelled cysteine peptide fold change (50 µM)
TNRC18_O15417_2602_NCSAASSR (UniProt O15417),-0.201,-0.322
TONSL_Q96HA7_1345_RLCAEDRDALR (UniProt Q96HA7),-0.259,-0.544
TOR3A_Q9H497_193_DGLMSDCVR (UniProt Q9H497),-0.16,0.174
TMEM161A_Q9NX61_33_WLLCNGSLFR (UniProt Q9NX61),-0.213,-0.345
TLR2_O60603_585_LSVSECHR (UniProt O60603),-0.146,-0.0389
TNFAIP8L1_Q8WVP5_153_INHVFGHLADCDFLAALYGPAEPYR (UniProt Q8WVP5),-0.194,-0.087
TMTC3_Q6ZXV5_794_CLLETLALAPHEEYIQR (UniProt Q6ZXV5),-0.104,0.204
TMEM9B_Q9NQ34_68_DCDCLHVVEPMPVRGPDVEAYCLR (UniProt Q9NQ34),0.0635,0.101
TOP2B_Q02880_237_HFDGEDYTCITFQPDLSK (UniProt Q02880),0.0628,0.0886
TOR1A_O14656_50_LYCLFAECCGQK (UniProt O14656),-0.104,0.242
TMPPE_Q6ZT21_358_ALEGCSPDHTIILLAHQPLAAK (UniProt Q6ZT21),-0.103,0.284
TOP2B_Q02880_93_KTQLEHILLRPDTYIGSVEPLTQFMWVYDEDVGMNCR (UniProt Q02880),0.225,-0.000288
TOP1_P11387_386_IMPEDIIINCSK (UniProt P11387),-0.14,-0.0606
TONSL_Q96HA7_1167_LQACGFGPSFFLSHQTALGSAFQDAEHLK (UniProt Q96HA7),0.0464,-0.305
TNPO3_Q9Y5L0_634_HTNPIVENGQTHPCQK (UniProt Q9Y5L0),0.0283,-0.115
TNIP2_Q8NFZ5_428_HVAECCQ (UniProt Q8NFZ5),0.116,0.276
TNPO3_Q9Y5L0_580_ITECLSELCSVQVMALKK (UniProt Q9Y5L0),-0.00843,-0.267
TNRC18_O15417_2921_CLVVGLEQYEQMLK (UniProt O15417),-0.133,0.197
TP53BP1_Q12888_712_ECSEAMEVETSVISIDSPQK (UniProt Q12888),-0.03,0.193

# Source: the supplement of paper PMC12067093, “Discovery and optimisation of a covalent ligand for TRIM25 and its application to targeted protein ubiquitination” (Chemical Science, 2025)
